For four molecules, binding results are on record in PMC6576150.

The target of experiment [1] is Mta2-GFP (mouse (endogenous in ES cells)) (UniProt Q9R190). As to the kind of experiment: co-IP; GFP-Trap agarose beads; 200 μg nuclear extract of heterozygously targeted mouse ES cells in GFP IP buffer (10 mM Tris pH 7.5, 150 mM NaCl, 0.5 mM EDTA) with benzonase, 1 h at 4°C; western blot. (Immunoblotting shows a protein as a band on a membrane.)
The target in experiment [2] is Mta1-Avi-3xFLAG (mouse (endogenous in ES cells)) (UniProt Q8K4B0). As to the kind of experiment: co-IP; anti-FLAG antibody on Protein G Sepharose; 200 μg nuclear extract of heterozygously targeted mouse ES cells in IP Buffer (50 mM Tris-HCl pH 7.5, 150 mM NaCl, 1 mM EDTA, 1% Triton X-100, 0.1% SDS, 0.1% DOC) with benzonase, 4°C overnight; last washes with 300 mM NaCl; western blot.

For experiment [3], the target named is T1, Mta1-Avi-3xFLAG (mouse (endogenous in ES cells)), Q8K4B0.
T1 chain: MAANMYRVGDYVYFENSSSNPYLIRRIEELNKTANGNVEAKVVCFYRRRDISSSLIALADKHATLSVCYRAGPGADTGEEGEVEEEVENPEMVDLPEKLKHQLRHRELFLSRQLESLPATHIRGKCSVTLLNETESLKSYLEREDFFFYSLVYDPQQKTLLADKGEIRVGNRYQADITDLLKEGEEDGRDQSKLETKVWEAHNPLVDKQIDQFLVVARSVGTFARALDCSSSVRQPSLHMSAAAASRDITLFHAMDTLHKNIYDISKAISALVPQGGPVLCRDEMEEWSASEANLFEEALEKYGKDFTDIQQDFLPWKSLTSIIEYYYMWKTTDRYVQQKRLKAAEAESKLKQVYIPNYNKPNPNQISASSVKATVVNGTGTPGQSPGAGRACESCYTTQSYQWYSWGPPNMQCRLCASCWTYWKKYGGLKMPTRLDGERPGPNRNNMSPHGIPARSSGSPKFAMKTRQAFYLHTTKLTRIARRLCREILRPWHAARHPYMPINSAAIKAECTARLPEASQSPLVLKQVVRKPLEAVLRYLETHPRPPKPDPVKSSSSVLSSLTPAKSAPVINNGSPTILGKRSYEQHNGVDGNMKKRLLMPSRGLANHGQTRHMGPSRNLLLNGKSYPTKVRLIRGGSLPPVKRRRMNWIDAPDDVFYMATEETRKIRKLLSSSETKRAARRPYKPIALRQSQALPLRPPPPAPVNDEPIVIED
The experiment is described as above. The following applies: remark: other sources report otherwise.

The target in experiment [4] is T2, Mta2-GFP (mouse (endogenous in ES cells)), Q9R190.
T2 chain: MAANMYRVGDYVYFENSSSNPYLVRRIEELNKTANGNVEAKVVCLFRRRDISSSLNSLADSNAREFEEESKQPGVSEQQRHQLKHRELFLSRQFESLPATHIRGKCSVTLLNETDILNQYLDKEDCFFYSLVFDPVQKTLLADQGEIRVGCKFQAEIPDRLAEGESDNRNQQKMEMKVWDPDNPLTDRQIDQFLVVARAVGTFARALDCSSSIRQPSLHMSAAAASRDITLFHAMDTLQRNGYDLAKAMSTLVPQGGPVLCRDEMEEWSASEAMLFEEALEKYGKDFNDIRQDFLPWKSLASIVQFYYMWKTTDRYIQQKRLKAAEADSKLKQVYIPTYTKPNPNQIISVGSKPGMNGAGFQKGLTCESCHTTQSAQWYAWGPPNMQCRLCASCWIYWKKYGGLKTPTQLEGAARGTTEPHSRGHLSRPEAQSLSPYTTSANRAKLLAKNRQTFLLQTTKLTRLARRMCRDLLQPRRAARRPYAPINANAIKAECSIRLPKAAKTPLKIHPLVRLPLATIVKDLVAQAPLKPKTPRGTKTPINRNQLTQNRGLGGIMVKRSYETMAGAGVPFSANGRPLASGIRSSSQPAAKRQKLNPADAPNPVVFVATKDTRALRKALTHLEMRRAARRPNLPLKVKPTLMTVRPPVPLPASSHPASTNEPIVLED
In words: co-IP; GFP-Trap agarose beads; 200 μg nuclear extract of heterozygously targeted mouse ES cells in GFP IP buffer (10 mM Tris pH 7.5, 150 mM NaCl, 0.5 mM EDTA) with benzonase, 1 h at 4°C; western blot. The following applies: remark: other sources report otherwise.

These are yes or no findings as the source states them, for the method shown. In cells and extracts the contact can be indirect. Some entries that bind do so weakly or less than the wild type. For some of these results: Sequences can lack the tags named with a protein.

For Mta1 (from UniProt Q8K4B0 1-715), the binding entry in experiment [1] is on record as “binds”.

As for Mta2 (from UniProt Q9R190 1-668), the binding entry in experiment [2] is “binds”.

B1: Mta1, Q8K4B0 1-715 (protein)
chain: MAANMYRVGDYVYFENSSSNPYLIRRIEELNKTANGNVEAKVVCFYRRRDISSSLIALADKHATLSVCYRAGPGADTGEEGEVEEEVENPEMVDLPEKLKHQLRHRELFLSRQLESLPATHIRGKCSVTLLNETESLKSYLEREDFFFYSLVYDPQQKTLLADKGEIRVGNRYQADITDLLKEGEEDGRDQSKLETKVWEAHNPLVDKQIDQFLVVARSVGTFARALDCSSSVRQPSLHMSAAAASRDITLFHAMDTLHKNIYDISKAISALVPQGGPVLCRDEMEEWSASEANLFEEALEKYGKDFTDIQQDFLPWKSLTSIIEYYYMWKTTDRYVQQKRLKAAEAESKLKQVYIPNYNKPNPNQISASSVKATVVNGTGTPGQSPGAGRACESCYTTQSYQWYSWGPPNMQCRLCASCWTYWKKYGGLKMPTRLDGERPGPNRNNMSPHGIPARSSGSPKFAMKTRQAFYLHTTKLTRIARRLCREILRPWHAARHPYMPINSAAIKAECTARLPEASQSPLVLKQVVRKPLEAVLRYLETHPRPPKPDPVKSSSSVLSSLTPAKSAPVINNGSPTILGKRSYEQHNGVDGNMKKRLLMPSRGLANHGQTRHMGPSRNLLLNGKSYPTKVRLIRGGSLPPVKRRRMNWIDAPDDVFYMATEETRKIRKLLSSSETKRAARRPYKPIALRQSQALPLRPPPPAPVNDEPIVIED
In the case of B1, the binding entry in experiment [3] was “binds”.

B2: Mta2, Q9R190 1-668 (protein)
chain: MAANMYRVGDYVYFENSSSNPYLVRRIEELNKTANGNVEAKVVCLFRRRDISSSLNSLADSNAREFEEESKQPGVSEQQRHQLKHRELFLSRQFESLPATHIRGKCSVTLLNETDILNQYLDKEDCFFYSLVFDPVQKTLLADQGEIRVGCKFQAEIPDRLAEGESDNRNQQKMEMKVWDPDNPLTDRQIDQFLVVARAVGTFARALDCSSSIRQPSLHMSAAAASRDITLFHAMDTLQRNGYDLAKAMSTLVPQGGPVLCRDEMEEWSASEAMLFEEALEKYGKDFNDIRQDFLPWKSLASIVQFYYMWKTTDRYIQQKRLKAAEADSKLKQVYIPTYTKPNPNQIISVGSKPGMNGAGFQKGLTCESCHTTQSAQWYAWGPPNMQCRLCASCWIYWKKYGGLKTPTQLEGAARGTTEPHSRGHLSRPEAQSLSPYTTSANRAKLLAKNRQTFLLQTTKLTRLARRMCRDLLQPRRAARRPYAPINANAIKAECSIRLPKAAKTPLKIHPLVRLPLATIVKDLVAQAPLKPKTPRGTKTPINRNQLTQNRGLGGIMVKRSYETMAGAGVPFSANGRPLASGIRSSSQPAAKRQKLNPADAPNPVVFVATKDTRALRKALTHLEMRRAARRPNLPLKVKPTLMTVRPPVPLPASSHPASTNEPIVLED
In the case of B2, in experiment [4], the binding entry was “binds”.
